{"source": "patent US20250186461A1", "about": "“METHODS AND COMPOSITIONS FOR TREATING AND/OR PREVENTING HERNIAS” (Northwestern University, priority 2023, published 2025)", "test_system": "PGR expression in LAM fibroblasts of Arom^hum mice", "assay": "E2/ESR1-induced PGR expression (mRNA, immunoblotting) in LAM fibroblasts", "type": "cell-based, mouse", "procedure": "(A) Time course of E2 (10 nM) effect on PGR protein expression in LAM fibroblasts of Arom^hum mice. […] (E) PGR protein levels in LAM primary fibroblasts from WT and Arom^hum mice after treatment with ICI with or without E2 for 48 h. Cells were pretreated with ICI or MPP for 2 h before adding E2. Data are representative of 3 independent experiments; B-actin serves as a loading control for (A) and (E). Vch: vehicle. […] MPP: A selective ESR1 antagonist.\nBreast cancer cell line T47D served as a positive control.", "note": "At least one structure is not confirmed: it was looked up by name or label, or the drawing left a doubt."}
{"smiles": "C[C@]12CC[C@@H]3c4ccc(O)cc4CC[C@H]3[C@@H]1CC[C@@H]2O", "note": "[E2, Estradiol]", "values": [{"measurement": "PGR protein expression, time course", "setting": "10 nM E2, 0.5, 1, 2, 4, 8, 12 and 24 h", "value": "time-dependent increase in three PGR isoforms"}, {"measurement": "protein levels of 3 PGR isoforms (immunoblotting)", "setting": "LAM fibroblasts of WT and Arom^hum mice, ICI with or without E2 for 48 h", "value": "induced"}]}
